The target of this test is T1, GFP-PSTCD fusion protein (biotinylated in the cytoplasm of CHO cells) (P. shermanii) (UniProt P02904).
T1 sequence (chain, biotin on lysine 89 of PSTCD (numbering of FIG. 1)): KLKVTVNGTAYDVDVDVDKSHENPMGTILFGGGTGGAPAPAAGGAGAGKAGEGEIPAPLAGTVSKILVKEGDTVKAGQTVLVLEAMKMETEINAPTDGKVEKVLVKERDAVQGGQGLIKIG
Nature of the test: Western blot of CHO cell lysate, avidin-HRP probe. In general terms: A western blot detects proteins with antibodies after separation by electrophoresis.

Sequences of proteins named here, by UniProt entry; tags and fusion partners are left off. Residues count along the entry.
UniProt P02701, residues 25-152: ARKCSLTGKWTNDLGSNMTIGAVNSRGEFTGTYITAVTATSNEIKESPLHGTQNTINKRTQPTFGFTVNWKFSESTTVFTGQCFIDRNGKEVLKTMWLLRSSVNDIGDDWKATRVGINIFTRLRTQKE

No constants are given. Whether binding was seen depends on the method and setting. Some binding calls cover weakened binding; strength is not graded here. Tags and fused reporters may be left off the sequences shown.

As to avidin-HRP (from UniProt P02701 25-152), the binding entry was “binds”.

Values taken from patent publication US20020142355A1 (BAYLOR COLLEGE OF MEDICINE, published 2002).
